## Library screen at single concentrations

Protein sequences, listed by entry. Tags and fused reporters are not part of them. Residues count along the entry.
UniProt Q8IDJ8, 1-583: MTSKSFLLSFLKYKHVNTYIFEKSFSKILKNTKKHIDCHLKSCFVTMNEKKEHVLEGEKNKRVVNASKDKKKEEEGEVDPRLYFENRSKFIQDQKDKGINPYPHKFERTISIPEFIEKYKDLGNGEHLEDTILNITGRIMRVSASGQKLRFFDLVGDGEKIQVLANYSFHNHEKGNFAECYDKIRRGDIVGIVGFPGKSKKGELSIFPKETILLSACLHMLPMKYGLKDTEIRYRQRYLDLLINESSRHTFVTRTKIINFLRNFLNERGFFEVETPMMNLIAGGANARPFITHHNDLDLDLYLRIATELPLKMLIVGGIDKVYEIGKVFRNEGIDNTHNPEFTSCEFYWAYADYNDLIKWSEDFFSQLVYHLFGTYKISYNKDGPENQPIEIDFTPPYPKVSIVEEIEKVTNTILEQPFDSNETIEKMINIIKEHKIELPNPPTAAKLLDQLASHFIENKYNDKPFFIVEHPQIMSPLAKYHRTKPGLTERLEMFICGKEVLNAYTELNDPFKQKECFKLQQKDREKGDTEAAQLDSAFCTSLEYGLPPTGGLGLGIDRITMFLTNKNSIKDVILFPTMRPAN
UniProt Q4DA54, 1-478: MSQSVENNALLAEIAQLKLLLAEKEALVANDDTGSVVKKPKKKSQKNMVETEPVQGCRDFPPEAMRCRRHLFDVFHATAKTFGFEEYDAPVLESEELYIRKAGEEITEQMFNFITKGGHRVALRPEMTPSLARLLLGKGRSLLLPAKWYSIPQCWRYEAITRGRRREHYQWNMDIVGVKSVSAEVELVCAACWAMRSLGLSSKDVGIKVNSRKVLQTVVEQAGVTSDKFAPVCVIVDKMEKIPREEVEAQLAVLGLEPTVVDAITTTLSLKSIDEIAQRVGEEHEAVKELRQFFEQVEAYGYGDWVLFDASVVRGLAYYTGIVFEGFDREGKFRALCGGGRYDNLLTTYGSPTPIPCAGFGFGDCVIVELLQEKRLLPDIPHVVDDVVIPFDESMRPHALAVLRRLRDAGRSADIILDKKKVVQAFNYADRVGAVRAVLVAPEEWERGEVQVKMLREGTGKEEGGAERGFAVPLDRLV
UniProt I6X8D2, whole entry: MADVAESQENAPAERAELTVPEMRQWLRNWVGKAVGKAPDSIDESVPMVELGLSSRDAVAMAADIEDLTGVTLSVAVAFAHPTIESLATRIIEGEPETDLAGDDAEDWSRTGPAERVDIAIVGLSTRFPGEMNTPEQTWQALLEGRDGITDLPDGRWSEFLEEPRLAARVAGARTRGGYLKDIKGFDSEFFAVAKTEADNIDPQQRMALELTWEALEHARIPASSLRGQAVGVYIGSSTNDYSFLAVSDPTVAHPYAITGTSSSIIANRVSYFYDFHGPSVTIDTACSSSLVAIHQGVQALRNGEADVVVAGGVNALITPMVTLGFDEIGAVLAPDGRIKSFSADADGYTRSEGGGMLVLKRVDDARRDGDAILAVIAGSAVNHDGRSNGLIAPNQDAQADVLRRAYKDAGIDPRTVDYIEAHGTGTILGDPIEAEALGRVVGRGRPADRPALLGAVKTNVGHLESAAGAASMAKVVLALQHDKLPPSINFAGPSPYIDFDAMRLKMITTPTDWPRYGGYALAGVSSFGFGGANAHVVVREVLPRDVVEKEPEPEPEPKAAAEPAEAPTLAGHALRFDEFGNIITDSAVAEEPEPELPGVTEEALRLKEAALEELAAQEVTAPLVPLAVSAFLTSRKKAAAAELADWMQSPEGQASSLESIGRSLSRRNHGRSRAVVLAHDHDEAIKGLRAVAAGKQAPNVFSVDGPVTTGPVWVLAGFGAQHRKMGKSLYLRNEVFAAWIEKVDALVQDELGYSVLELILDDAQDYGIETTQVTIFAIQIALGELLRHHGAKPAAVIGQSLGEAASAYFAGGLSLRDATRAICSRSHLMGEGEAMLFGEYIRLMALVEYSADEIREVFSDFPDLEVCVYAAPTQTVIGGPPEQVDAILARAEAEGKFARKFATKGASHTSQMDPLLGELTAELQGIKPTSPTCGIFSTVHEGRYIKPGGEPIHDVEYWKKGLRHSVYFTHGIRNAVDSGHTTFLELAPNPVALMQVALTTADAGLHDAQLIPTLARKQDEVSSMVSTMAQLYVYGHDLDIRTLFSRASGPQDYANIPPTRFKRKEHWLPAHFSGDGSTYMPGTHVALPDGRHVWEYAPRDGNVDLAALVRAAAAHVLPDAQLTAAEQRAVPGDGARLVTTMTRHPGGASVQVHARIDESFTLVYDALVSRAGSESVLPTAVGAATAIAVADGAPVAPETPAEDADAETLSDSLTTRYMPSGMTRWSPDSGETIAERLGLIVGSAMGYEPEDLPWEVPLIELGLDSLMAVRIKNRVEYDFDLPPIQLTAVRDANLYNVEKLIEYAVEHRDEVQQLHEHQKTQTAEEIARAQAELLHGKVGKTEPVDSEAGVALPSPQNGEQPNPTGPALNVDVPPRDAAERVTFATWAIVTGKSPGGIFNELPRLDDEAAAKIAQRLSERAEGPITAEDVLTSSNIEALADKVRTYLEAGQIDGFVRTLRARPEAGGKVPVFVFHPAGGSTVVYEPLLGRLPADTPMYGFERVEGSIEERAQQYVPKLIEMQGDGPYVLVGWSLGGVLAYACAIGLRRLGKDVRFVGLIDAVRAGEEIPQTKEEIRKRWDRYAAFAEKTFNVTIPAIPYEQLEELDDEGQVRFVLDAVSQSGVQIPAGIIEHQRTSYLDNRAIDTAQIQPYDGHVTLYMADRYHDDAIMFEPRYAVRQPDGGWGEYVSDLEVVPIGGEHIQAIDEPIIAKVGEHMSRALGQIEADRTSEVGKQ

Source: ChEMBL document CHEMBL3988442, “University of Dundee, Small-Polar-MMV Screening Library” (2021).

PfKRS1: 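Enzyme assay of the cytosolic lysyl-tRNA synthetase in 384-well plates, read by luminescence. Target: Lysine-tRNA ligase, Plasmodium falciparum 3D7 (UniProt Q8IDJ8). Concentration: 30 µM. Higher reads as stronger inhibition, judged from the few compounds that gave an IC50. Size under these conditions: about 69,000 compounds, about 49 of them at 50% or above in at least one test.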
TcHisRS: 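Enzyme assay of histidyl-tRNA synthetase; the read-out is not stated. Target: Histidine-tRNA ligase, Trypanosoma cruzi CL Brener (UniProt Q4DA54). Concentration: 30 µM. Higher reads as stronger inhibition (inferred: compounds with an IC50 in retests scored well above the rest). About 69,000 compounds were tested under these conditions; 0.045% (about 31) showed 50% or more at least once.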
Pks13 thioesterase: 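Enzyme assay of the thioesterase domain of polyketide synthase 13; the read-out is not stated. Target: Polyketide synthase Pks13, Mycobacterium tuberculosis (UniProt I6X8D2). Tested at 30 µM. The record gives no direction; the compounds picked for IC50 retests had high values, so higher reads as stronger inhibition. Of about 67,000 compounds tested this way, about 300 (0.46%) reached 50% or more in at least one test.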

The filed quantity is “Percent Effect” (%). The controls that fix the scale are not given in the record; negative values are as filed. The compounds are a random part of those screened. A dash means the value is not listed here; it may have been measured.

| # | compound | PfKRS1 | TcHisRS | Pks13 thioesterase |
|---|---|---|---|---|
| 1 | `O=C(NC(CN1CCCC1)c1ccccc1)c1c(O)cc(F)cc1F` (stereo not drawn) | 0.5104% | 7.182% | -20.47% |
| 2 | `Cc1cc(C)nc(Nc2cc(C)nc(C3CCN(C(=O)CO)C3)n2)n1` (stereo not drawn) | 2.022% | 1.916% | 0.8487% |
| 3 | `Cc1nc(CN2CCCn3c(nc(Cn4cncn4)cc3=O)C2)cs1` | 2.979% | 10.4% | 6.369% |
| 4 | `Cc1cnc(N2CCC3(CCN(CC4CCCC4)C3=O)CC2)nc1` | 5.385% | 4.327% | -3.704% |
| 5 | `Cc1cc(=O)c2cc(F)ccc2n1CC(=O)O` | 6.378% | 0.8929% | -14.13% |
| 6 | `O=C(c1cn2ccsc2n1)N1CCOCC(O)(CN2CCCC2)C1` (stereo not drawn) | 0.8332% | -1.064% | -14.7% |
| 7 | `O=C(NC1CCC1)C1CCC2(CN(C(=O)c3ccno3)C2)O1` (stereo not drawn) | -0.1052% | 3.681% | -24.38% |
| 8 | `CS(=O)(=O)CCN1CCc2c(ncn2C2CC2)C1` | 4.245% | 2.632% | -21.24% |
| 9 | `CC(=O)N(C)Cc1cncc(C2CCCN2C2CCOCC2)n1` (stereo not drawn) | 0.6972% | 6.818% | 4.417% |
| 10 | `CNS(=O)(=O)c1ccc(CN(C)Cc2nc3ccc(F)cc3[nH]2)cc1` | 1.807% | 5.051% | 0.1618% |
| 11 | `COCC(NC(=O)c1cn2ccsc2n1)c1ccnn1C` (stereo not drawn) | -9.641% | 7.463% | 48.02% |
| 12 | `COCc1cc(N(C)Cc2cc(C(C)(C)C)n[nH]2)ncn1` | 6.329% | 13.58% | 0.1709% |
| 13 | `Cn1cc(C(=O)N2CCC(Cc3nccs3)CC2)cn1` | -3.404% | 6.452% | -13.8% |
| 14 | `O=C(c1cn(Cc2ccc(Cl)cc2)nn1)N1CCCO1` | -0.4999% | -1.064% | -32.09% |
| 15 | `COCC(C)(C)NC(=O)CC(c1ccccc1)C(F)(F)F` (stereo not drawn) | 5.899% | 4.598% | -21.17% |
| 16 | `O[C@H]1[C@H](n2cc(-c3ccccn3)nn2)c2ccccc2C12CCNCC2` | 2.342% | 3.175% | -32.16% |
| 17 | `CN(C)S(=O)(=O)NC1CC(=O)N(c2ccccc2Cl)C1` (stereo not drawn) | 0.1057% | 6.736% | -3.842% |
| 18 | `CCC(C)(CCO)NC(=O)c1ccon1` (stereo not drawn) | -7.758% | -7.182% | 5.333% |
| 19 | `Cc1cnn(CCNCc2nc(COc3ccc(F)cc3)no2)c1` | -2.583% | 2.662% | - |
| 20 | `O=C(NCc1cnc2n1CCN(Cc1ccsc1)CC2)C1CCC1` | -1.612% | 0.8475% | -1.22% |
| 21 | `Cc1nc(C)c(C(C)NCc2cnc(N3CCOCC3)nc2)s1` (stereo not drawn) | -0.9394% | 0% | -15.11% |
| 22 | `Cc1cc(C(=O)N(C)C)c2c(Br)cccc2n1` | 4.019% | 6.25% | -3.283% |
| 23 | `Cc1c[nH]c(CN2CCCn3nc(CNS(C)(=O)=O)cc3C2)n1` | 4.419% | 5.102% | -23.38% |
| 24 | `O=C(NCC1CCS(=O)(=O)C1)c1ccc2cccc(Cl)c2n1` (stereo not drawn) | -3.438% | -0.5405% | -27.06% |
| 25 | `CN(C)C(=O)CCC[S+]([O-])Cc1cc(Cl)ccc1Cl` (stereo not drawn) | 0.06792% | 5.682% | - |
| 26 | `Cc1cc(C(=O)N2CCC[C@]3(C[C@H](OCC4CC4)CO3)C2)no1` | 5.598% | 6.863% | -10.56% |
| 27 | `COc1ccc(-n2ccc(CNCc3cccc(OC)c3)n2)cc1` | -1.872% | 3.448% | - |
| 28 | `O=C(NC[C@H]1OC[C@@H](NCc2ccccn2)[C@@H]1O)c1ccncc1` | 3.269% | 3.483% | -31.03% |
| 29 | `Cc1ccccc1CN1CCN(Cc2nccn2C)CC1` | -6.334% | 2.256% | -8.245% |
| 30 | `CC(C)(C)n1cc(CNc2ccc(CNS(C)(=O)=O)cc2)cn1` | -0.7348% | 5% | 9.211% |
| 31 | `Cc1cccc(C(C)CNC(=O)N2CCOCC3(CCOCC3)C2)c1` (stereo not drawn) | 7.808% | 2.463% | -28.57% |
| 32 | `COCCC(=O)N1C[C@@H](c2cccc(OC)c2)[C@@]2(CCCCC(=O)N2)C1` | 1.945% | 4.651% | -1.227% |
| 33 | `O=C(Cc1ccccc1)N1CC(=O)N(Cc2ccco2)CC(O)C1` (stereo not drawn) | 6.499% | 0% | 6.199% |
| 34 | `CCCN(Cc1nc(-c2ccoc2)oc1C)CC1CCCO1` (stereo not drawn) | 2.314% | 7.296% | -0.1098% |
| 35 | `CCN(CC)C(=O)c1cc(Br)cc(S(=O)(=O)N2CCOCC2)c1F` | 0.1567% | 7.792% | -21.04% |
| 36 | `CCOc1ccc(CC(CNC(=O)c2ccoc2)C(N)=O)cc1` (stereo not drawn) | 3.333% | -0.3774% | -31.37% |
| 37 | `Cc1ccc(C(=O)NC2CCN(C(=O)Nc3ccccn3)CC2)o1` | 2.222% | 0.3774% | -18.08% |

Once more, the final 3:

compound	PfKRS1	TcHisRS	Pks13 thioesterase
CCN(CC)C(=O)c1cc(Br)cc(S(=O)(=O)N2CCOCC2)c1F	0.1567%	7.792%	-21.04%
CCOc1ccc(CC(CNC(=O)c2ccoc2)C(N)=O)cc1 (stereo not drawn)	3.333%	-0.3774%	-31.37%
Cc1ccc(C(=O)NC2CCN(C(=O)Nc3ccccn3)CC2)o1	2.222%	0.3774%	-18.08%